# Results of single-concentration screens

By UniProt entry, the sequences of proteins in these tests, tags left out. Residues count along the entry.
UniProt Q4DA54, 1-478: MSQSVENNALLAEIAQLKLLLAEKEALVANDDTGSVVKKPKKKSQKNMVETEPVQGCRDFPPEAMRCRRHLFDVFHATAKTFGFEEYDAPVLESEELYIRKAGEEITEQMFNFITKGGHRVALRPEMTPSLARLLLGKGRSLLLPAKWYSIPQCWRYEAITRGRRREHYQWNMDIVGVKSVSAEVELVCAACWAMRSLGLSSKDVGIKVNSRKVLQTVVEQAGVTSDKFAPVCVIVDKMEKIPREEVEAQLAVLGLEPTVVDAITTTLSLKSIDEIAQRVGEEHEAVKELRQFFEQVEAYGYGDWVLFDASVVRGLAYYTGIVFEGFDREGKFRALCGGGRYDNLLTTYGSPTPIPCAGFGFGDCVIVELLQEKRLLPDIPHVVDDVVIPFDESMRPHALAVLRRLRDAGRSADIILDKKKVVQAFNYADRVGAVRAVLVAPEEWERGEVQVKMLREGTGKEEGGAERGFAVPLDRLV
UniProt P9WNZ1, whole entry: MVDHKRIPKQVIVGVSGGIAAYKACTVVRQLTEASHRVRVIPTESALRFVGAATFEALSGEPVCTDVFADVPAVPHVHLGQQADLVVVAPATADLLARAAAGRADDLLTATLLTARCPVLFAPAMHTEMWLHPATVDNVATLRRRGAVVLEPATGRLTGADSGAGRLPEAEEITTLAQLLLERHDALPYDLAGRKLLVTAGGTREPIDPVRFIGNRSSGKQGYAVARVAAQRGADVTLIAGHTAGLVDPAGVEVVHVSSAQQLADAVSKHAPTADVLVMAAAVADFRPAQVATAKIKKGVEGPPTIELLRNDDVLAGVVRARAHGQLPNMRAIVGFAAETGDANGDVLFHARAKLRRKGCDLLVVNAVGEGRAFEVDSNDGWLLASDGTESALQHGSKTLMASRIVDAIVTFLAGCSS

A: 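Assay of Toxoplasma gondii numbers, read through their beta-galactosidase reporter with a colour substrate. Tested at 10 µM. The record gives no direction; the compounds picked for IC50 retests had high values, so higher reads as fewer parasites. Size under these conditions: about 67,000 compounds, about 260 of them at 50% or above in at least one test.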
B: 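Enzyme assay of histidyl-tRNA synthetase; the read-out is not stated. Target: Histidine-tRNA ligase, Trypanosoma cruzi CL Brener (UniProt Q4DA54). Concentration: 30 µM. The record gives no direction; compounds that gave an IC50 in retests scored well above the rest, so higher reads as stronger inhibition. About 69,000 compounds were tested under these conditions; 0.045% (about 31) showed 50% or more at least once.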
C: 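Coenzyme A biosynthesis protein CoaBC, Mycobacterium tuberculosis (UniProt P9WNZ1). Enzyme assay of CoaBC with a phosphate dye (Biomol Green) read at 650 nm. Tested at 30 µM. Higher reads as stronger inhibition, judged from the few compounds that gave an IC50. Most strong results did not repeat in a second test. About 67,000 compounds were tested under these conditions; 0.06% (about 40) showed 50% or more at least once.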
D: 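Cell assay of Leishmania donovani living inside macrophages; the read-out is not stated. Tested at 30 µM. Higher reads as stronger inhibition (inferred: compounds with an IC50 in retests scored well above the rest). Of about 69,000 compounds tested this way, about 1,000 (1.5%) reached 50% or more in at least one test.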

Results are given as percent effect.
How 0% and 100% were set is not recorded. Most values in the screen are low, and negative values occur.
This is an unselected part of the compounds tested.
Two or more numbers in one place are separate tests of the same structure; such repeats can differ widely.

structure: O=C(O)C(F)(F)F.[H][C@@]12CN(Cc3ccc(C)cc3)C[C@]1([H])CN(c1ncc(F)cn1)C2
A: 18.14
D: -4.749 & -8.956

structure: CCCN1CCC(c2nc3ccc(-c4cccc(F)c4)cn3n2)CC1.O=C(O)C(F)(F)F
A: 1.078
D: 49.02

structure: Cc1ccc2c(c1)C(NC1CC1)CC21CCNCC1.Cl (centres unmarked)
A: 15.91
D: 14.58

structure: CNC(=O)CN1CCOCC12CCN(C(=O)c1ccc(C)cc1)CC2.O=C(O)C(F)(F)F
A: -0.6471
D: 19.64

structure: CN(C(=O)Cn1nc(-c2cccs2)ccc1=O)C1CCS(=O)(=O)C1 (centres unmarked)
A: 0.8547
B: 3.261
C: 2.294
D: -0.2404

structure: O=C(NCCO)c1coc(Cn2cnc3ccccc32)n1
A: 11.28
B: 1.807
C: 3.049
D: 10.27

structure: COCCN1CCCC(c2nccnc2Nc2nc(C)cs2)C1 (centres unmarked)
A: -6.176
B: 13.19
C: 0
D: 24.59 & 20.8

structure: CN(CCN1CCOC1=O)CC(=O)Nc1ccc(Cl)c(C(F)(F)F)c1
A: -10.09
B: 0.5848
C: 3.788
D: 22.54

structure: O=C(O)C(F)(F)F.[H][C@]12CN(Cc3cc(C)on3)C[C@@]1([H])OCCN(C(=O)c1cccn1C)C2
A: -8.732
D: 11.08

structure: [H][C@@]12CN(C(=O)c3cnn(C)c3)CCO[C@]1([H])CN(C1CCC1)C2
A: 1.746
D: 7.77

structure: CNc1cc(C2CN(Cc3coc(C)n3)CCO2)nc(C)n1 (centres unmarked)
A: -0.9076
B: 4.563
C: 2.843
D: -3.411

structure: Cc1ccc(OCC(O)CN2CCC(Cn3cc(C)cn3)CC2)cc1 (centres unmarked)
A: -0.5676
B: 2.564
C: -5.362
D: 13.69

structure: COc1c(C2CCCN2Cc2cc(C)no2)c(C)nn1C (centres unmarked)
A: 6.139
B: 3.448
C: 2.698
D: -8.273

structure: CN1CCN(C2CCN(CCOc3ccccc3F)CC2)C1=O
A: 5.022
B: 1.724
C: 3.484
D: 30.85

structure: CC1(C(N)=O)CCCN(c2cnccn2)C1 (centres unmarked)
A: 13.21
B: 9.886
C: 2.349
D: -8.874

structure: CN(C)C(=O)CO[C@@H]1CN(Cc2ccccc2F)[C@@H]2CCCO[C@@H]21
B: 4.95
C: 2.447

structure: CCOCC1CN(Cc2ccc(F)cc2)Cc2nn(CC3CC3)cc21 (centres unmarked)
A: -2.397
B: 4.878
C: 9.023
D: 24.33

structure: CCNc1nnc(CCn2nc(C)c(Br)c2C)s1
A: 14.82
B: 5.155
C: -2.685
D: -4.178

structure: O=C1[C@H]2CN(c3cnccn3)C[C@H]2CN1CC1CC1
B: 7.216
C: 4.68

Some entries from above, unchanged:

CC1(C(N)=O)CCCN(c2cnccn2)C1 (centres unmarked) gave A: 13.21%; B: 9.886%; C: 2.349%; D: -8.874%.
O=C(O)C(F)(F)F.[H][C@]12CN(Cc3cc(C)on3)C[C@@]1([H])OCCN(C(=O)c1cccn1C)C2 gave A: -8.732%; D: 11.08%.

Source: ChEMBL document CHEMBL3988442, “University of Dundee, Small-Polar-MMV Screening Library” (2021).